Assay results published in paper PMC4338625.
Construct, isoform or probe ends are uncertain for at least one entry. At least one verdict was read from the data and is not stated in words by the source. For some of these results: Protein sequences can lack the tags named with them.

Protein sequences, listed by entry. Tags and fused reporters are not part of them. Lines headed by an entry give the natural chain unless they say otherwise; changes in a name come on top.
UniProt P41161: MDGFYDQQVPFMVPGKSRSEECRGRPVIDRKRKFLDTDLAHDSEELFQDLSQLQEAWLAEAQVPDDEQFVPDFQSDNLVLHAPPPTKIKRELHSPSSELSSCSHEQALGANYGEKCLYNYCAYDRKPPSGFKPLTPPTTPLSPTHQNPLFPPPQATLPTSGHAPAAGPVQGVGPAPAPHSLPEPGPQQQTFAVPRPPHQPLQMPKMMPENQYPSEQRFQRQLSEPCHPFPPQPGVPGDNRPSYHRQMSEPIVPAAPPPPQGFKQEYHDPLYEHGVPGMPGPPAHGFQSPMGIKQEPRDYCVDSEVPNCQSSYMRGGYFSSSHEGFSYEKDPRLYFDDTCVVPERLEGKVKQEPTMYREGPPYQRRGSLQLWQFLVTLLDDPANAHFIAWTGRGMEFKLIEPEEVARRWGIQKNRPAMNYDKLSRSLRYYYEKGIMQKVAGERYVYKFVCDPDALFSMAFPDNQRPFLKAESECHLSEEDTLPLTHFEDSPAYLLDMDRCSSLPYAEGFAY
UniProt Q01892: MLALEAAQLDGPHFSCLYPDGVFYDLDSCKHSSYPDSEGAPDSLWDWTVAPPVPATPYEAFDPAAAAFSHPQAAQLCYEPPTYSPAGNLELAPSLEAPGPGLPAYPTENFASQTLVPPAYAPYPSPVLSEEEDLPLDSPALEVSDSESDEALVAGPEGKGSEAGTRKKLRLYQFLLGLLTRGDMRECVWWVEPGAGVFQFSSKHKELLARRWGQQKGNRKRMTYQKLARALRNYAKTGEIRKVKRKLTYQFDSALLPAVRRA

Key:
Assay in all cases: EMSA
FEV (human) = target: T1, FEV (human) (UniProt Q99581); conditions: EMSA conditions not printed (as previously described, ref 5); protein stock in 10 mM Tris pH 7.9, 0.5 mM EDTA, 200 mM KCl, 1 mM DTT, 10% glycerol; recombinant protein; residues 1-238; protein details: N-term 6xHis
T1 sequence (looked up): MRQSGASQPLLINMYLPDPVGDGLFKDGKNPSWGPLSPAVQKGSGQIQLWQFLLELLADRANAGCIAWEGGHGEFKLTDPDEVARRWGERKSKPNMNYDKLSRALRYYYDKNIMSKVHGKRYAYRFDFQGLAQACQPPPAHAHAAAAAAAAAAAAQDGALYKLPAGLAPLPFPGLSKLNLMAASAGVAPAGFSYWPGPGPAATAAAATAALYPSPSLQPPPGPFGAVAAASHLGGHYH

FLI1 (human) = target: T2, FLI1 (human) (UniProt Q01543); conditions: EMSA conditions not printed (as previously described, ref 5); protein stock in 10 mM Tris pH 7.9, 0.5 mM EDTA, 200 mM KCl, 1 mM DTT, 10% glycerol; recombinant protein; residues 1-452; protein details: N-term 6xHis
T2 sequence (looked up): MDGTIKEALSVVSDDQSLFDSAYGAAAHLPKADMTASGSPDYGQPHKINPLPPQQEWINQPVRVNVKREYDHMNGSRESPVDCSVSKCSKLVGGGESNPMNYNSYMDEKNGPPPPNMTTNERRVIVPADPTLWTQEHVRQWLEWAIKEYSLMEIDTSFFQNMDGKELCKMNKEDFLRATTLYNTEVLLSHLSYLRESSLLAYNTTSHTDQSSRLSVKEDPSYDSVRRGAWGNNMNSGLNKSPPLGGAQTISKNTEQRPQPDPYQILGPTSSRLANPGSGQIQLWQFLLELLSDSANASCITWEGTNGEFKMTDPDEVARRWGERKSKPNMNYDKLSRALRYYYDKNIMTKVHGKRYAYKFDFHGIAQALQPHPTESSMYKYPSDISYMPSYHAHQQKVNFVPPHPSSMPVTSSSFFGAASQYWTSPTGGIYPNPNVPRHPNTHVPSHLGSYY

EHF (human) = target: T3, EHF (human) (UniProt Q9NZC4); conditions: EMSA conditions not printed (as previously described, ref 5); protein stock in 10 mM Tris pH 7.9, 0.5 mM EDTA, 200 mM KCl, 1 mM DTT, 10% glycerol; recombinant protein; residues 1-300; protein details: N-term 6xHis
T3 sequence (looked up): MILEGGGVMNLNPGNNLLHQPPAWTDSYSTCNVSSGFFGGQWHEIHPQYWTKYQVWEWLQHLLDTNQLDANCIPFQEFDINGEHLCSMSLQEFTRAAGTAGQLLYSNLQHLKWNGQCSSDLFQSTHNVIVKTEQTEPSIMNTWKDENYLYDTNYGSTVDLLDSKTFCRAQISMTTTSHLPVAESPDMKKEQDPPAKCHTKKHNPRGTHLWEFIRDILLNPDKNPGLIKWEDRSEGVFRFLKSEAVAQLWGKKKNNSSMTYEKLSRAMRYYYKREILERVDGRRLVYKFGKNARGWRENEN

ETS2 (human) = target: T4, ETS2 (human) (UniProt P15036); conditions: EMSA conditions not printed (as previously described, ref 5); protein stock in 10 mM Tris pH 7.9, 0.5 mM EDTA, 200 mM KCl, 1 mM DTT, 10% glycerol; recombinant protein; residues 1-469; protein details: N-term 6xHis
T4 sequence (looked up): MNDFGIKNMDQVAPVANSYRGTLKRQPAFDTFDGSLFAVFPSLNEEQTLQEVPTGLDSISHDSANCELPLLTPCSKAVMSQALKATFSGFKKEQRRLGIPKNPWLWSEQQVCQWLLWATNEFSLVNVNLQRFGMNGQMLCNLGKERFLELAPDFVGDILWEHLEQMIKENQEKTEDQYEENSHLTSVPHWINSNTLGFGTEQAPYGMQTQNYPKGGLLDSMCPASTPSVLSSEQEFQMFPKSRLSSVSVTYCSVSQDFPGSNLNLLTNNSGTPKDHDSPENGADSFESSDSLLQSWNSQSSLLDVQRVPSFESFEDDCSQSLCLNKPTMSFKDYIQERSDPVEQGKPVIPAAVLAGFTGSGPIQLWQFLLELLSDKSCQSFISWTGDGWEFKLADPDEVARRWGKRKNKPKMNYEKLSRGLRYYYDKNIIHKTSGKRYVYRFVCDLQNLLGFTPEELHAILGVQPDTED

ERG (human) = target: T5, ERG (human) (UniProt P11308); conditions: EMSA conditions not printed (as previously described, ref 5); protein stock in 10 mM Tris pH 7.9, 0.5 mM EDTA, 200 mM KCl, 1 mM DTT, 10% glycerol; recombinant protein; residues 1-479; protein details: N-term 6xHis
T5 sequence (looked up): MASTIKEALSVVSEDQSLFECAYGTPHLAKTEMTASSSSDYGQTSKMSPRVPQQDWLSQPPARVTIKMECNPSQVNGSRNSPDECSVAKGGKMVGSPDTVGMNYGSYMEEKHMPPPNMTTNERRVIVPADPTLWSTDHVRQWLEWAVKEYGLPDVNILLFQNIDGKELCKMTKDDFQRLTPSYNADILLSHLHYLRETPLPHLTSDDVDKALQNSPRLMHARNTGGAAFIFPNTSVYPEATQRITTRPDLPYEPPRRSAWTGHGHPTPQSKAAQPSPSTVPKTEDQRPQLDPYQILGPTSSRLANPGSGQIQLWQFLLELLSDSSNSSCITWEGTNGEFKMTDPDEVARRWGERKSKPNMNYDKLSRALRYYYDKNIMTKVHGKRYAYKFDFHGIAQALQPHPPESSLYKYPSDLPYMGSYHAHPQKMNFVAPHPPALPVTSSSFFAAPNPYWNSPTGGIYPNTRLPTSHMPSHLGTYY

ETV5 (human) = ETV5 (human) (UniProt P41161); conditions: EMSA conditions not printed (as previously described, ref 5); protein stock in 10 mM Tris pH 7.9, 0.5 mM EDTA, 200 mM KCl, 1 mM DTT, 10% glycerol; recombinant protein; residues 1-510; protein details: N-term 6xHis
SPIB (human) = SPIB (human) (UniProt Q01892); conditions: EMSA conditions not printed (as previously described, ref 5); protein stock in 10 mM Tris pH 7.9, 0.5 mM EDTA, 200 mM KCl, 1 mM DTT, 10% glycerol; recombinant protein; residues 1-262; protein details: N-term 6xHis

Measured: binding result

GCCACGGCCCAGGAAGTGACTCACCCACCCTGATG (double strand) [ETS consensus EMSA probe]
binds: all assays above
